The list shows a part of the results.
Experiments:
Assay in all cases: log2 fold change, soluble protein after heating vs DMSO (PISA); higher = thermal stabilisation; K562 lysate, 10 uM; active = over 0.2 and 3.5 SD of the protein, either way, in both replicates (recomputed)
[1] = compound: Cc1cn(-c2cc(NC(=O)c3ccc(C)c(Nc4nccc(-c5cccnc5)n4)c3)cc(C(F)(F)F)c2)cn1 [nilotinib]
Summary of the method: (§1)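 Dounce homogenisation of K562 pellets in PBS pH 7.4 with 1 mM MgCl2 produced a crude extract, used at 1 mg/mL protein. Exposure to 10 μM compound lasted 30 min, and aliquots were then heated for 3 min across 48°C-58°C, pooled and brought to 0.5% NP-40 at 4°C. The supernatant after 21,000xg for 90 min was quantified by TMTpro 16plex LC-MS/MS with channel sums equalised. Duplicate values are given as log-two fold change in thermal stability relative to solvent controls.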

Sequences of proteins named here, by UniProt entry; tags and fusion partners are left off. A change or cut given only in a name is not applied to a line headed by its entry.
UniProt Q92598: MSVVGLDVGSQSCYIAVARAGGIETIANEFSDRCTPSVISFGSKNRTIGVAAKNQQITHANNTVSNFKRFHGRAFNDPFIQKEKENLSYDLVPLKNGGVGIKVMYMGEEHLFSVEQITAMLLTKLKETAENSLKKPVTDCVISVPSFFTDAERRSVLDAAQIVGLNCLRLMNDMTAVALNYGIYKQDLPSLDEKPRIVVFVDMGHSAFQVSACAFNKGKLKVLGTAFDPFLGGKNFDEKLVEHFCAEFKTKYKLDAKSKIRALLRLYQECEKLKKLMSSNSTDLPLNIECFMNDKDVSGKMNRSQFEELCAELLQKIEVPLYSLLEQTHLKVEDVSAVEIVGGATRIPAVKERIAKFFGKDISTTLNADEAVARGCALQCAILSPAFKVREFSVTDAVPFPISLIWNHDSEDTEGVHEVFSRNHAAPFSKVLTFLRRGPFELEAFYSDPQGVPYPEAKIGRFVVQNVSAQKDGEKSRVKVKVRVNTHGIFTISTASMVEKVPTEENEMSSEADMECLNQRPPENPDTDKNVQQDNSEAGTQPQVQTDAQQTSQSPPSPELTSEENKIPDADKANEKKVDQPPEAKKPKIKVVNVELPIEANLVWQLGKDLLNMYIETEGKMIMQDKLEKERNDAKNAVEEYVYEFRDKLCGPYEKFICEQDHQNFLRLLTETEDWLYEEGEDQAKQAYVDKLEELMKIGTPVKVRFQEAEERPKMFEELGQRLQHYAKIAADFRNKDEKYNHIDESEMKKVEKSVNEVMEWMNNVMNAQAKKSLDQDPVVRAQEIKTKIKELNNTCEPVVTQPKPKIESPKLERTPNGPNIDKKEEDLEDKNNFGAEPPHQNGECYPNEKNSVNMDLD
UniProt Q13478: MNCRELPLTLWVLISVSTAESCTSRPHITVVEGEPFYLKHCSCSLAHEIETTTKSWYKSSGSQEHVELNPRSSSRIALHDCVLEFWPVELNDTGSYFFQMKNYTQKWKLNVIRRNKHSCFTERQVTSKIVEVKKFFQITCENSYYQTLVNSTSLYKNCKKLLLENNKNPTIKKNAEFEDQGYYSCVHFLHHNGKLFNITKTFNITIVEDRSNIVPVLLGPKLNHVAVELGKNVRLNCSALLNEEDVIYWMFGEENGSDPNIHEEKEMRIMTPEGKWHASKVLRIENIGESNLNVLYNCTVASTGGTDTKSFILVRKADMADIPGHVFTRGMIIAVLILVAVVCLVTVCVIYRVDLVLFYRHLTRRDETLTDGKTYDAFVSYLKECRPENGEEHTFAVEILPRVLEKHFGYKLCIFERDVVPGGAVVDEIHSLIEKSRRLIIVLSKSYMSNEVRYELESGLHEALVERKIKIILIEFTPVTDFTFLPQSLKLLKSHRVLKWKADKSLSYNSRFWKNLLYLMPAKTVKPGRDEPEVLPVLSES
UniProt Q96CB8, whole entry, looked up: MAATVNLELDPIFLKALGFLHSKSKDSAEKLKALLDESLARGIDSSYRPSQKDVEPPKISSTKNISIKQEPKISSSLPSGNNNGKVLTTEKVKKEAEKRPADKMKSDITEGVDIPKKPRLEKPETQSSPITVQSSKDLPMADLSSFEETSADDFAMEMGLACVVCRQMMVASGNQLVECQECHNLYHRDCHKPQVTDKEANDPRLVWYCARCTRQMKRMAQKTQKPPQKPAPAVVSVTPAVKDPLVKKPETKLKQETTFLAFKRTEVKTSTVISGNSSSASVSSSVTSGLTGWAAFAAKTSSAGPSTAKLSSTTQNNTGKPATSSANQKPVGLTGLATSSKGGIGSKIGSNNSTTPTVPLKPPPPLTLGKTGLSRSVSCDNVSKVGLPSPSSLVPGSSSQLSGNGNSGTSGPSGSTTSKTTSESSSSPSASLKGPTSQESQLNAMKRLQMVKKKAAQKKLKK
UniProt P11142, whole entry, looked up: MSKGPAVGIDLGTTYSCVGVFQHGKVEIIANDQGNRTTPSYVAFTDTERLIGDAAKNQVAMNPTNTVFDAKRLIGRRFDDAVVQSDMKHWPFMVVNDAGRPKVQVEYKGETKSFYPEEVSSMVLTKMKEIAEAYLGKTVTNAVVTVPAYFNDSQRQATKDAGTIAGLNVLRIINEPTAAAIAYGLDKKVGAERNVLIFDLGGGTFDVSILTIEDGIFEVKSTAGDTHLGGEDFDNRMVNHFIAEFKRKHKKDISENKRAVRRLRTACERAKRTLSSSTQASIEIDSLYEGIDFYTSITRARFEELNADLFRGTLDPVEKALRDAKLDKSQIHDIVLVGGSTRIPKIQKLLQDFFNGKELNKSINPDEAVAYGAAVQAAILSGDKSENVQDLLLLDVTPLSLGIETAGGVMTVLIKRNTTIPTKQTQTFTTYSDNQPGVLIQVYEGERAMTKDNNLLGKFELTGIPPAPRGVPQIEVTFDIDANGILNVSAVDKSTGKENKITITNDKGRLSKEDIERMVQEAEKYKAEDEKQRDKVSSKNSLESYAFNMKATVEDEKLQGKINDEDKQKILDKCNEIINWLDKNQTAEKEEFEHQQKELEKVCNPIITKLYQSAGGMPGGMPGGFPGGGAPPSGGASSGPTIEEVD
UniProt Q9H0C8: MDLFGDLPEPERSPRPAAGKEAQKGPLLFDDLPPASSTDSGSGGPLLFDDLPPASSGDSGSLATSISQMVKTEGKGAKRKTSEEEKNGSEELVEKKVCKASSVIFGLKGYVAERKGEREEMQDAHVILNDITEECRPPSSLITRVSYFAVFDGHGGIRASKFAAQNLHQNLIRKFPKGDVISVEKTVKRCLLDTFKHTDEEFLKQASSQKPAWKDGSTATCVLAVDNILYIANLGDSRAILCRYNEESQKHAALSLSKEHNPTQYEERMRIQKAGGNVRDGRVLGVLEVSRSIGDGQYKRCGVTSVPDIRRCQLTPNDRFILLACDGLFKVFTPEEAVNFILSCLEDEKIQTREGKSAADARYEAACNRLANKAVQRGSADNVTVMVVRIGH
UniProt Q9NVR2, whole entry, looked up: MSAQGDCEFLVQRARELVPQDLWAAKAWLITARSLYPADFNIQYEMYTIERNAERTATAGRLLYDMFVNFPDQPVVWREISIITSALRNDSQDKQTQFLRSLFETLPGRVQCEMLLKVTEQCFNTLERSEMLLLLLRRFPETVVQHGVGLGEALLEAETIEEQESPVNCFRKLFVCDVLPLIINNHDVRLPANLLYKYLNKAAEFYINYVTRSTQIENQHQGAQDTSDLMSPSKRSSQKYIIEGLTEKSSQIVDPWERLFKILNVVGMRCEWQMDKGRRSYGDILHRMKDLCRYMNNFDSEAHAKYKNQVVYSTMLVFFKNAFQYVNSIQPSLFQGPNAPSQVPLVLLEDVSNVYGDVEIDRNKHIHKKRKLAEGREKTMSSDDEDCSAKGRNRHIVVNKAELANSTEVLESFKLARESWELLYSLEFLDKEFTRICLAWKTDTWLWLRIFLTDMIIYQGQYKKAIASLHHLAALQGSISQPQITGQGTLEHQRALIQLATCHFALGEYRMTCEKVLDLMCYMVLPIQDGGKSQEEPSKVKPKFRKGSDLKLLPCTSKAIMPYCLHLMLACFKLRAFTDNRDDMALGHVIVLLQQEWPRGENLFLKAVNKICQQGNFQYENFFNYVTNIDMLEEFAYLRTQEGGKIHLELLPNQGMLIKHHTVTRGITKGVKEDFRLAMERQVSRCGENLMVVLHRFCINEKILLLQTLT
UniProt Q01628, whole entry, looked up: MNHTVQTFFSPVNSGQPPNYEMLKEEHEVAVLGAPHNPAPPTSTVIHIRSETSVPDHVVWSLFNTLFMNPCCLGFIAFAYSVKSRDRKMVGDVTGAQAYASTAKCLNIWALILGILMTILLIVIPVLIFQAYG
UniProt Q13907: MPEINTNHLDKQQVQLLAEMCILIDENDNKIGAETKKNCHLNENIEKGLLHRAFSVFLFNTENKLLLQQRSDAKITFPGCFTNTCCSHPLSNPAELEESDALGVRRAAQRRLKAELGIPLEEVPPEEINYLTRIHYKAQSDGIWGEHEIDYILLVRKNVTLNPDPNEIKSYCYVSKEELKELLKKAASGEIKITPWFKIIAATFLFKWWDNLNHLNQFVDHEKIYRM
UniProt Q9Y4L1: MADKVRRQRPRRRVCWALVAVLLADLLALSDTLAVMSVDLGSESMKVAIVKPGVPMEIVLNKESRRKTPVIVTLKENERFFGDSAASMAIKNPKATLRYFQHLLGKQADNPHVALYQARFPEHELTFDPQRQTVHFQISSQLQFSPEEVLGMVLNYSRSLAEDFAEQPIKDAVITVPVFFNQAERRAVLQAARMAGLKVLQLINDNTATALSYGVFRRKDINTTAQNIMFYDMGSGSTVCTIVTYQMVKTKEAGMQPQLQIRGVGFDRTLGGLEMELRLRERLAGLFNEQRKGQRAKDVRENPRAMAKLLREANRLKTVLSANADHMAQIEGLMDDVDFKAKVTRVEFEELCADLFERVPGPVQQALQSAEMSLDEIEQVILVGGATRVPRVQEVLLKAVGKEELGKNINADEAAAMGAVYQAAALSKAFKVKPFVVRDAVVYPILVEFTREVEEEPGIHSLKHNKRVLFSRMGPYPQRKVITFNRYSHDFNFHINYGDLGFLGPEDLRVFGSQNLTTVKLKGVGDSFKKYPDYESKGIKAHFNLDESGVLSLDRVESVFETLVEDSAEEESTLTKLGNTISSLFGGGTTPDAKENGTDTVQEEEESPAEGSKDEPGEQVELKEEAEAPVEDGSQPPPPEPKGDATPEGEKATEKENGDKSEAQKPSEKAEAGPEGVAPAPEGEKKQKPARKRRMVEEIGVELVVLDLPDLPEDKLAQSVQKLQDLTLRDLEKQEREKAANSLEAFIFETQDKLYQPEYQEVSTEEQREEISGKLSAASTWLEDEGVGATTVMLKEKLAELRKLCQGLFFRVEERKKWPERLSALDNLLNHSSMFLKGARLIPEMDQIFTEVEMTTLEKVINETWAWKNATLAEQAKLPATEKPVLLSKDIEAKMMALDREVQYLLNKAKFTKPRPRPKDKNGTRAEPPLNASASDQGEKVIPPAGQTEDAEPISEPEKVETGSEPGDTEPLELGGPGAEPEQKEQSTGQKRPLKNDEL
UniProt P29218: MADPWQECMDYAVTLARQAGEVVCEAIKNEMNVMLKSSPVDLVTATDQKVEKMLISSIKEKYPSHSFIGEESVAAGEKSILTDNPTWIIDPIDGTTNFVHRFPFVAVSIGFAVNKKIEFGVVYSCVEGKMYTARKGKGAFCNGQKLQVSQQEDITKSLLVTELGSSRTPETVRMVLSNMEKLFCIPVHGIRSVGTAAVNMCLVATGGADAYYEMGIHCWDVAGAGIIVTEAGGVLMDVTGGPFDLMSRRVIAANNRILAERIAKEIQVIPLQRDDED
UniProt O00458: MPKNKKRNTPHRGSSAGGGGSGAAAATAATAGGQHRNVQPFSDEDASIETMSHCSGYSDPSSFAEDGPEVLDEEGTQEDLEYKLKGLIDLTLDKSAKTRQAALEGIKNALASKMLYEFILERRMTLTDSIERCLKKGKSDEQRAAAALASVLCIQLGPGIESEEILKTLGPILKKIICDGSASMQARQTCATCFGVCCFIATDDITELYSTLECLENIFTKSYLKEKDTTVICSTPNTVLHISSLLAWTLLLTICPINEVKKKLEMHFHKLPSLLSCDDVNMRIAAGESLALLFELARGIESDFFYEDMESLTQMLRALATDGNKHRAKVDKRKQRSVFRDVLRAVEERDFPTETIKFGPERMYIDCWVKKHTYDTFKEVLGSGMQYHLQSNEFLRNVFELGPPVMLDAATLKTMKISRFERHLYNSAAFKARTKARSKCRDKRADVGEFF
UniProt Q9NV31: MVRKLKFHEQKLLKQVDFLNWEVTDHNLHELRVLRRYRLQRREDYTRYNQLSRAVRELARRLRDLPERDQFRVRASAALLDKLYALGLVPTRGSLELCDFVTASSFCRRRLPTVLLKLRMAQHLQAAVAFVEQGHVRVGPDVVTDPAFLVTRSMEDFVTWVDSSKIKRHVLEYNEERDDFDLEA
UniProt Q9NZI8, whole entry, looked up: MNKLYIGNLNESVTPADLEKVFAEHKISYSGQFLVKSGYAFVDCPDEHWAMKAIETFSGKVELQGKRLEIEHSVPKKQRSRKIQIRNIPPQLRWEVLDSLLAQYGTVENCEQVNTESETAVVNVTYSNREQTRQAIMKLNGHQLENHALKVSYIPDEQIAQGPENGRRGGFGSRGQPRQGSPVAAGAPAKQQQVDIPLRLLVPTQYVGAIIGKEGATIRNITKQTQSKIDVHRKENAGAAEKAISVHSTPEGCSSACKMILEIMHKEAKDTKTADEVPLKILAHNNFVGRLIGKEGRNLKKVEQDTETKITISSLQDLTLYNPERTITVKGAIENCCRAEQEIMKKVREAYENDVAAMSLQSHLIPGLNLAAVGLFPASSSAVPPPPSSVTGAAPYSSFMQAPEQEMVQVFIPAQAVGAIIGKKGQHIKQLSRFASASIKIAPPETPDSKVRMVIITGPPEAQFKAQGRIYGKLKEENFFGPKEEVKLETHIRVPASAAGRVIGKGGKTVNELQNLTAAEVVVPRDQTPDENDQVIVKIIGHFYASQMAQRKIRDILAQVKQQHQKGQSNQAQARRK
UniProt P61604, whole entry, looked up: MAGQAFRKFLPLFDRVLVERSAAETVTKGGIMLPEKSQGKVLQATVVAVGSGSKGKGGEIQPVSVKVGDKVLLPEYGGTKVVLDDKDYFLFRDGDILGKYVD

[2] = compound: Cc1nc(Nc2n[nH]c3c2CN(C(=O)N[C@H](CN(C)C)c2ccccc2)C3(C)C)c2sccc2n1
Summary of the method: as §1

[3] = compound: Cc1nc(Nc2ncc(C(=O)Nc3c(C)cccc3Cl)s2)cc(N2CCN(CCO)CC2)n1 [dasatinib]
Summary of the method: as §1

[4] = compound: Cc1ncc(-c2ccnc(Nc3ccc(S(C)(=O)=O)cc3)n2)n1C(C)C
Summary of the method: as §1

[5] = compound: Cn1cc(-c2ccc3c(c2)CCN3C(=O)Cc2cccc(C(F)(F)F)c2)c2c(N)ncnc21
Summary of the method: as §1

[6] = compound: Cn1cc(CNCC2CCN(c3ncc(C(=O)NO)cn3)CC2)c2ccccc21 [quisinostat]
Summary of the method: as §1

[7] = compound: Cn1cncc1[C@@](N)(c1ccc(Cl)cc1)c1ccc2c(c1)c(-c1cccc(Cl)c1)cc(=O)n2C [tipifarnib]
Summary of the method: as §1

[8] = compound: NC(=O)Nc1cc(-c2cccc(F)c2)sc1C(=O)N[C@H]1CCCNC1
Summary of the method: as §1

[9] = compound: NC(=O)c1cnc(N[C@@H]2CCCC[C@@H]2N)nc1Nc1cccc(-n2nccn2)c1
Summary of the method: as §1

[10] = compound: NC1(c2ccc(-c3nc4ccn5c(=O)[nH]nc5c4cc3-c3ccccc3)cc2)CCC1
Summary of the method: as §1

[11] = compound: NCC(=O)Nc1ccc(-n2nc(C(F)(F)F)cc2-c2ccc3c(ccc4ccccc43)c2)cc1
Summary of the method: as §1

[12] = compound: O=C(CCCCCCC(=O)Nc1ccccc1)NO [vorinostat]
Summary of the method: as §1

[13] = compound: O=C(O)c1ccc2c(c1)nc(Nc1cccc(Cl)c1)c1ccncc12 [silmitasertib]
Summary of the method: as §1

[14] = compound: O=C1NC(=O)C(c2cnc3ccccn23)=C1c1cn2c3c(cc(F)cc13)CN(C(=O)N1CCCCC1)CC2
Summary of the method: as §1

[15] = compound: c1cn2cc(-c3ccc4cn[nH]c4c3)nc(Nc3ccc(N4CCOCC4)cc3)c2n1 [entospletinib]
Summary of the method: as §1

Measured: log2 fold change

HSPH1 (UniProt Q92598)
inactive: [1] -0.007 | [2] 0.009 | [3] 0.015 | [4] 0.002 | [5] 0.025 | [6] 0.012 | [7] -0.003 | [8] -0.006 | [9] 0.002 | [10] 0.013 | [11] -0.011 | [12] -0.122 | [13] 0.005 | [14] -0.023 | [15] -0.01

IL18R1 (UniProt Q13478)
inactive: [1] 0.02 | [2] 0.136 | [3] 0.181 | [4] -0.108 | [5] 0.004 | [6] 0.067 | [7] 0.118 | [8] 0.155 | [9] -0.055 | [10] 0.211 | [11] -0.246 | [12] 0.198 | [13] -0.33 | [14] 0.075 | [15] -0.084

INTS12 (UniProt Q96CB8)
inactive: [1] -0.028 | [2] 0.033 | [3] 0.027 | [4] -0.084 | [5] -0.08 | [6] -0.037 | [7] -0.028 | [8] 0.067 | [9] 0.037 | [10] -0.01 | [11] 0.018 | [12] -0.156 | [13] -0.046 | [14] -0.035 | [15] -0.017

HSPA8 (UniProt P11142)
inactive: [1] -0.01 | [2] 0.002 | [3] 0.013 | [4] 0.004 | [5] -0.007 | [6] 0.022 | [7] 0 | [8] -0.024 | [9] -0.008 | [10] 0.003 | [11] -0.008 | [12] 0.105 | [13] -0.009 | [14] -0.011 | [15] -0.002

ICA1 (UniProt Q05084)
inactive: [1] 0.018 | [2] 0.04 | [3] 0.025 | [4] -0.015 | [5] -0.023 | [6] -0.053 | [7] 0.021 | [8] -0.034 | [9] -0.017 | [10] 0.016 | [11] -0.012 | [12] -0.17 | [13] 0.008 | [14] 0.016 | [15] -0.007

Reprinted at random: 2 entries already listed
HSPH1 (UniProt Q92598)
inactive: [1] -0.007 | [2] 0.009 | [3] 0.015 | [4] 0.002 | [5] 0.025 | [6] 0.012 | [7] -0.003 | [8] -0.006 | [9] 0.002 | [10] 0.013 | [11] -0.011 | [12] -0.122 | [13] 0.005 | [14] -0.023 | [15] -0.01

HSPA8 (UniProt P11142)
inactive: [1] -0.01 | [2] 0.002 | [3] 0.013 | [4] 0.004 | [5] -0.007 | [6] 0.022 | [7] 0 | [8] -0.024 | [9] -0.008 | [10] 0.003 | [11] -0.008 | [12] 0.105 | [13] -0.009 | [14] -0.011 | [15] -0.002

Next entries:

ILKAP (UniProt Q9H0C8)
active: [12] -0.288
inactive: [1] 0.023 | [2] -0.01 | [3] 0.025 | [4] -0.094 | [5] -0.009 | [6] 0.011 | [7] -0.005 | [8] 0.005 | [9] 0.026 | [10] 0.044 | [11] -0.05 | [13] 0.053 | [14] -0.024 | [15] -0.001

INTS10 (UniProt Q9NVR2)
inactive: [1] -0.01 | [2] -0.025 | [3] -0.054 | [4] -0.024 | [5] 0.109 | [6] -0.034 | [7] -0.021 | [8] 0.011 | [9] 0.039 | [10] 0.028 | [11] 0.027 | [13] 0.047 | [14] 0.002 | [15] 0.006
active: [12] -0.438

IFITM3 (UniProt Q01628)
inactive: [1] 0.068 | [2] 0.055 | [3] 0.049 | [4] -0.013 | [5] 0.064 | [6] -0.069 | [7] -0.136 | [8] -0.044 | [9] -0.133 | [10] -0.051 | [11] -0.02 | [12] 0.067 | [13] -0.129 | [14] 0.069 | [15] 0.059

IDI1 (UniProt Q13907)
inactive: [1] 0.034 | [2] 0.048 | [3] 0.011 | [4] 0.055 | [5] -0.089 | [6] 0.047 | [7] -0.002 | [8] -0.045 | [9] 0.028 | [10] -0.002 | [11] -0.008 | [12] 0.101 | [13] -0.001 | [14] -0.004 | [15] -0.006

HYOU1 (UniProt Q9Y4L1)
inactive: [1] 0.012 | [2] -0.002 | [3] -0.004 | [4] -0.007 | [5] 0.005 | [6] 0.018 | [7] -0.018 | [8] -0.012 | [9] 0 | [10] -0.007 | [11] 0.031 | [12] 0.069 | [13] -0.013 | [14] 0.008 | [15] -0.006

IMPA1 isoform 3 (UniProt P29218)
inactive: [1] -0.001 | [2] 0.021 | [3] -0.002 | [4] -0.005 | [5] 0.014 | [6] 0.002 | [7] -0.003 | [8] -0.014 | [9] 0 | [10] 0.018 | [11] 0.011 | [12] 0.11 | [13] -0.013 | [14] -0.011 | [15] -0.005

IFI30 (UniProt P13284)
inactive: [1] -0.005 | [2] -0.002 | [3] 0.057 | [4] 0.048 | [5] -0.001 | [6] -0.146 | [7] 0.033 | [8] -0.007 | [9] 0.033 | [10] -0.003 | [11] 0.008 | [12] 0.014 | [13] -0.024 | [14] 0.046 | [15] -0.017

IFRD1 (UniProt O00458)
inactive: [1] 0.01 | [2] -0.007 | [3] 0.036 | [4] -0.018 | [5] 0.042 | [6] -0.005 | [7] 0.005 | [8] 0.002 | [9] -0.016 | [10] -0.026 | [11] -0.143 | [12] 0.057 | [13] 0.084 | [14] -0.043 | [15] -0.001

IDH3A (UniProt P50213)
inactive: [1] 0.009 | [2] 0.023 | [3] -0.039 | [4] 0.03 | [5] 0.005 | [6] 0.016 | [7] -0.011 | [8] -0.008 | [9] -0.003 | [10] -0.006 | [11] -0.023 | [12] 0.069 | [13] 0.008 | [14] -0.03 | [15] -0.044

IMP3 (UniProt Q9NV31)
inactive: [1] -0.03 | [2] 0.011 | [3] -0.002 | [4] 0.033 | [5] 1.27 | [6] -0.229 | [7] -0.077 | [8] 0.032 | [9] -0.036 | [10] -0.046 | [11] 0.091 | [12] -0.048 | [13] 0.064 | [14] 0.1 | [15] 0.035

IGF2BP1 (UniProt Q9NZI8)
inactive: [1] -0.031 | [2] -0.005 | [3] -0.061 | [4] 0.002 | [5] 0.041 | [6] -0.018 | [7] 0.01 | [8] 0.042 | [9] -0.017 | [10] -0.028 | [11] 0.029 | [12] -0.169 | [13] 0.075 | [14] 0.034 | [15] 0.029

ING3 (UniProt Q9NXR8)
inactive: [1] -0.006 | [2] -0.001 | [3] 0.014 | [4] -0.012 | [5] 0.06 | [6] 0.028 | [7] 0.029 | [8] -0.006 | [9] 0.042 | [10] 0.052 | [11] -0.08 | [12] -0.21 | [13] 0.004 | [14] -0.047 | [15] -0.031

HSPE1 (UniProt P61604)
inactive: [1] 0.004 | [2] -0.037 | [3] 0.025 | [4] 0.016 | [5] 0.001 | [6] 0.031 | [7] 0.019 | [8] -0.046 | [9] -0.01 | [10] -0.003 | [11] -0.076 | [12] 0.143 | [13] 0.002 | [14] -0.004 | [15] -0.037

HSPA8 (UniProt E9PK54)
inactive: [1] 0.023 | [2] -0.053 | [3] -0.024 | [4] -0.021 | [5] -0.032 | [6] -0.093 | [7] -0.01 | [8] 0.113 | [9] -0.033 | [10] 0.004 | [11] 0.068 | [12] -0.004 | [13] -0.037 | [14] -0.022 | [15] 0.012

IDE, A0A3B3ISG5
inactive: [1] -0.002 | [2] -0.001 | [3] 0.011 | [4] 0.014 | [5] 0.002 | [6] 0.041 | [7] -0.01 | [8] -0.007 | [9] 0.004 | [10] 0.011 | [11] 0.008 | [12] 0.073 | [13] -0.011 | [14] -0.023 | [15] 0.004

From the supplement of paper PMC10849652
